From patent US20230069722A1 (priority 2020, published 2023)

Assay: general procedure: solution-phase peptide synthesis; pentafluorophenol (PFP) / DIC, DIPEA
[1] = late stage modification step, from P10

In the case of “(4S)-5-[4-(2-aminoacetamido)-3-fluorophenyl]-4-({2-[(1R,3R)-1-ethoxy-3-[(2S,3S)—N-hexyl-3-methyl-2-{[(2R)-1-methylpiperidin-2-yl]formamido}pentanamido]-4-methylpentyl]-1,3-thiazol-4-yl}formamido)-2,2-dimethylpentanoic Acid”, the “final HPLC purity” value (coupling step) is reported as 99% and the step yield (coupling step, from 3Ba) is reported as 13%.

For “(4S)-5-[4-(2-aminoacetamido)phenyl]-4-({2-[(1R,3R)-1-ethoxy-3-[(2S,3S)—N-hexyl-3-methyl-2-{[(2R)-1-methylpiperidin-2-yl]formamido}pentanamido]-4-methylpentyl]-1,3-thiazol-4-yl}formamido)-2,2-dimethylpentanoic Acid”, the “final HPLC purity” value (coupling step) was 99% and the step yield (coupling step) was 11%.

With “(2S,3S)—N-[(1R,3R)-1-(4-{[(2S)-4-{[(4-aminophenyl)methanesulfonyl]carbamoyl}-4,4-dimethyl-1-phenylbutan-2-yl]carbamoyl}-1,3-thiazol-2-yl)-1-ethoxy-4-methylpentan-3-yl]-N-hexyl-3-methyl-2-{[(2R)-1-methylpiperidin-2-yl]formamido}pentanamide” the “purity (crude or final not stated)” value (late stage modification step) was 99% and the step yield (late stage modification step, from P50) was 6.5% yield.

For “(1R,3R)-1-[4-({4-[(2S)-2-[(2S)-2-Amino-3-methylbutanamido]-5-(carbamoylamino)pentanamido]benzenesulfonyl}carbamoyl)-1,3-thiazol-2-yl]-3-[(2S,3S)—N-hexyl-3-methyl-2-{[(2R)-1-methylpiperidin-2-yl]formamido}pentanamido]-4-methylpentyl Acetate”, the conjugation yield (conjugation step, from P43) was 27% yield from P43%.

In the case of “(1R,3R)-1-(4-{[(2S)-4-[(4-aminobenzenesulfonyl)carbamoyl]-1-(4-fluorophenyl)-4,4-dimethylbutan-2-yl]carbamoyl}-1,3-thiazol-2-yl)-3-[(2S,3S)—N-hexyl-3-methyl-2-{[(2R)-1-methylpiperidin-2-yl]formamido}pentanamido]-4-methylpentyl Acetate”, the “purity (crude or final not stated)” value (late stage modification step) is reported as 99% and the step yield [1] is reported as 72% yield.

For “(4S)-5-(4-amino-3-fluorophenyl)-4-({2-[(1R,3R)-3-[(2S,3S)—N-hexyl-3-methyl-2-{[(2R)-1-methylpiperidin-2-yl]formamido}pentanamido]-1-hydroxy-4-methylpentyl]-1,3-thiazol-4-yl}formamido)-2,2-dimethylpentanoic Acid”, the “final HPLC purity” value (late stage modification step) was greater than 99% and the step yield (late stage modification step, from P2) was 90%.

With “(4S)-5-[4-(2-aminoacetamido)phenyl]-4-({2-[(1R,3R)-1-ethoxy-3-[(2S,3S)—N-hexyl-3-methyl-2-[(2R)-piperidin-2-ylformamido]pentanamido]-4-methylpentyl]-1,3-thiazol-4-yl}formamido)-2,2-dimethylpentanoic Acid” the “final HPLC purity” value (coupling step) was 99% and the step yield (coupling step, from 3Bb, dual-TFA salt) was 18%.

For “(4S)-4-({2-[(1R,3R)-1-(acetyloxy)-3-[(2S,3S)—N-hexyl-3-methyl-2-{[(2R,4R)-4-methylpiperidin-2-yl]formamido}pentanamido]-4-methylpentyl]-1,3-thiazol-4-yl}formamido)-5-(4-amino-3-fluorophenyl)-2,2-dimethylpentanoic Acid”, the “final HPLC purity” value (coupling step) was 99% and the step yield (coupling step, from 3Fd) was 32%.

With “(4S)-4-({2-[(1R,3R)-1-(acetyloxy)-3-[(2S,3S)—N-hexyl-3-methyl-2-{[(2R)-2-methylpyrrolidin-2-yl]formamido}pentanamido]-4-methylpentyl]-1,3-thiazol-4-yl}formamido)-5-(4-hydroxyphenyl)-2,2-dimethylpentanoic Acid” the “final HPLC purity” value was greater than 99% and the step yield (late stage modification step) was 50%.

With “(4S)-4-({2-[(1R,3R)-3-[(2S,3S)—N-hexyl-3-methyl-2-{[(2R)-2-methylpyrrolidin-2-yl]formamido}pentanamido]-4-methyl-1-[(methylcarbamoyl)oxy]pentyl]-1,3-thiazol-4-yl}formamido)-5-(4-hydroxyphenyl)-2,2-dimethylpentanoic Acid” the “final HPLC purity” value was greater than 99% and the step yield (coupling step, from 3Ed) was 22%.

In the case of NH2-PEG4-Evc-P34, the “final HPLC purity” value (conjugation step) is reported as 99% and the conjugation yield (conjugation step, from L1-3b) is reported as 33% yield.

For “(4S)-4-({2-[(1R,3R)-1-(acetyloxy)-3-[(2S,3S)—N-hexyl-3-methyl-2-{[(2R)-2-methylpyrrolidin-2-yl]formamido}pentanamido]-4-methylpentyl]-1,3-thiazol-4-yl}formamido)-5-(4-amino-3-fluorophenyl)-2,2-dimethylpentanoic Acid”, the “final HPLC purity” value was greater than 99% and the step yield (coupling step, from 3Ff) was 7.6%.

With BCN-PEG4-Evc-P34 the conjugation yield (conjugation step) was 22% yield and the “purity (crude or final not stated)” value (conjugation step) was 99%.

For “(1R,3R)-1-(4-{[(2S)-4-{[4-(aminomethyl)benzenesulfonyl]carbamoyl}-1-(4-fluorophenyl)-4,4-dimethylbutan-2-yl]carbamoyl}-1,3-thiazol-2-yl)-3-[(2S,3S)—N-hexyl-3-methyl-2-{[(2R)-1-methylpiperidin-2-yl]formamido}pentanamido]-4-methylpentyl Acetate”, the “purity (crude or final not stated)” value (late stage modification step) was 98% and the step yield [1] was 67% yield.

With “(4S)-4-({2-[(1R,3R)-1-ethoxy-3-[(2S,3S)—N-hexyl-3-methyl-2-{[(2R)-1-methylpiperidin-2-yl]formamido}pentanamido]-4-methylpentyl]-1,3-thiazol-4-yl}formamido)-2,2-dimethyl-5-phenylpentanoic Acid” the step yield (coupling step, from 3Ba) was 60%.

For “(4S)-5-(4-aminophenyl)-4-({2-[(1R,3R)-3-[(2S,3S)—N-hexyl-3-methyl-2-{[(2R)-1-methylpiperidin-2-yl]formamido}pentanamido]-1-hydroxy-4-methylpentyl]-1,3-thiazol-4-yl}formamido)-2,2-dimethylpentanoic Acid”, the “final HPLC purity” value (coupling step) was 99% and the step yield (coupling step, from 2Aa) was 47%.

For “(4S)-4-({2-[(1R,3R)-1-(acetyloxy)-3-[(2S,3S)—N-hexyl-3-methyl-2-[(2R)-piperidin-2-ylformamido]pentanamido]-4-methylpentyl]-1,3-thiazol-4-yl}formamido)-5-(4-aminophenyl)-2,2-dimethylpentanoic Acid”, the “final HPLC purity” value was 99% and the step yield (coupling step, from 3Fb) was 18%.

For “(4S)-4-({2-[(1R,3R)-1-(acetyloxy)-4-methyl-3-[(2S,3S)-3-methyl-N-(pentyloxy)-2-[(2R)-piperidin-2-ylformamido]pentanamido]pentyl]-1,3-thiazol-4-yl}formamido)-5-(4-aminophenyl)-2,2-dimethylpentanoic Acid”, the “final HPLC purity” value (coupling step) was 99% and the step yield (coupling step, from 3Ic) was 13%.

For “(4S)-4-({2-[(1R,3R)-1-(acetyloxy)-3-[(2S,3S)—N-hexyl-3-methyl-2-{[(2R)-1-methylpiperidin-2-yl]formamido}pentanamido]-4-methylpentyl]-1,3-thiazol-4-yl}formamido)-5-[4-(2-hydroxyacetamido)phenyl]-2,2-dimethylpentanoic Acid”, the “purity (crude or final not stated)” value (coupling step) was 98% and the step yield (coupling step) was 25%.

With DIBAC-PEG4-EvcPAB-Gly-P8 the “purity (crude or final not stated)” value was 99.9% and the step yield (late stage modification step) was 14% yield.

With “(4S)-4-({2-[(1R,3R)-1-(acetyloxy)-3-[(2S,3S)-2-{[(2R,4R)-1,4-dimethylpiperidin-2-yl]formamido}-N-hexyl-3-methylpentanamido]-4-methylpentyl]-1,3-thiazol-4-yl}formamido)-5-(4-amino-3-fluorophenyl)-2,2-dimethylpentanoic Acid” the “final HPLC purity” value (coupling step) was 96% and the step yield (coupling step) was 13%.

With “(4S)-5-(4-aminophenyl)-4-({2-[(1R,3R)-1-ethoxy-3-[(2S,3S)—N-hexyl-3-methyl-2-[(2R)-piperidin-2-ylformamido]pentanamido]-4-methylpentyl]-1,3-thiazol-4-yl}formamido)-2,2-dimethylpentanoic Acid” the “final HPLC purity” value was greater than 99% and the step yield (coupling step, from 3Bb) was 22%.

For “(4S)-4-({2-[(1R,3R)-1-(acetyloxy)-3-[(2S,3S)—N-hexyl-3-methyl-2-[(2R)-piperidin-2-ylformamido]pentanamido]-4-methylpentyl]-1,3-thiazol-4-yl}formamido)-5-[4-(2-aminoacetamido)-3-fluorophenyl]-2,2-dimethylpentanoic Acid”, the “final HPLC purity” value (coupling step) was 98% and the step yield (coupling step, from 3Fb, TFA salt) was 20%.

For “(4S)-4-({2-[(1R,3R)-1-(acetyloxy)-3-[(2S,3S)—N-hexyl-3-methyl-2-{[(2R)-1-methylpiperidin-2-yl]formamido}pentanamido]-4-methylpentyl]-1,3-thiazol-4-yl}formamido)-5-{4-[(2-aminoethyl)amino]phenyl}-2,2-dimethylpentanoic Acid”, the “final HPLC purity” value (coupling step) was 96% and the step yield (coupling step, from 3Fa, TFA salt) was 49%.

Like-named read-outs stand apart in the source and are kept apart here.
